Here are results for three molecules from paper PMC10458163.

Chains of the proteins cited; added tags and fusions are not shown. Lines headed by an entry give the natural chain unless they say otherwise; changes in a name come on top.
UniProt P61088: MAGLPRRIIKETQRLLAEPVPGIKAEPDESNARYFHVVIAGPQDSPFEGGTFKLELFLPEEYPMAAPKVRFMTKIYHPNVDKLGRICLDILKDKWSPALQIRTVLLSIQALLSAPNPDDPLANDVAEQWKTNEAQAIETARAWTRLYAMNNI

These are yes or no findings as the source states them, for the method shown. In cells and extracts the contact can be indirect. Some entries that bind do so weakly or less than the wild type. Tags and fused reporters may be left off the sequences shown.

For experiment [1], the target named is Flag-UBC13 (UniProt P61088). Put plainly: co-IP.
Experiment [2] addresses Flag-UBC13-C87A (UniProt P61088). The experiment in a line: co-IP.

B1: HA-OTUD6A fl (enzyme, UniProt Q7L8S5 1-288)
chain: MDDPKSEQQRILRRHQRERQELQAQIRSLKNSVPKTDKTKRKQLLQDVARMEAEMAQKHRQELEKFQDDSSIESVVEDLAKMNLENRPPRSSKAHRKRERMESEERERQESIFQAEMSEHLAGFKREEEEKLAAILGARGLEMKAIPADGHCMYRAIQDQLVFSVSVEMLRCRTASYMKKHVDEFLPFFSNPETSDSFGYDDFMIYCDNIVRTTAWGGQLELRALSHVLKTPIEVIQADSPTLIIGEEYVKKPIILVYLRYAYSLGEHYNSVTPLEAGAAGGVLPRLL
As for B1, the binding entry in experiment [1] and in experiment [2] was “binds” each time.

B2: HA-OTUD6A d1-50 (domain or fragment, UniProt Q7L8S5 51-288)
chain: MEAEMAQKHRQELEKFQDDSSIESVVEDLAKMNLENRPPRSSKAHRKRERMESEERERQESIFQAEMSEHLAGFKREEEEKLAAILGARGLEMKAIPADGHCMYRAIQDQLVFSVSVEMLRCRTASYMKKHVDEFLPFFSNPETSDSFGYDDFMIYCDNIVRTTAWGGQLELRALSHVLKTPIEVIQADSPTLIIGEEYVKKPIILVYLRYAYSLGEHYNSVTPLEAGAAGGVLPRLL
With B2, in experiment [1], the binding result was “binds”.

B3: HA-OTUD6A d1-100 (domain or fragment, UniProt Q7L8S5 101-288)
chain: MESEERERQESIFQAEMSEHLAGFKREEEEKLAAILGARGLEMKAIPADGHCMYRAIQDQLVFSVSVEMLRCRTASYMKKHVDEFLPFFSNPETSDSFGYDDFMIYCDNIVRTTAWGGQLELRALSHVLKTPIEVIQADSPTLIIGEEYVKKPIILVYLRYAYSLGEHYNSVTPLEAGAAGGVLPRLL
For the molecule B3, in experiment [1], the binding entry was “binds”.
